The target of assay [1] is T1, OsSRF8 (N), N-terminal (extracellular) domain of OsSRF8, amino acids 26-320, yeast two-hybrid fusion (rice (Oryza sativa)).
T1 sequence: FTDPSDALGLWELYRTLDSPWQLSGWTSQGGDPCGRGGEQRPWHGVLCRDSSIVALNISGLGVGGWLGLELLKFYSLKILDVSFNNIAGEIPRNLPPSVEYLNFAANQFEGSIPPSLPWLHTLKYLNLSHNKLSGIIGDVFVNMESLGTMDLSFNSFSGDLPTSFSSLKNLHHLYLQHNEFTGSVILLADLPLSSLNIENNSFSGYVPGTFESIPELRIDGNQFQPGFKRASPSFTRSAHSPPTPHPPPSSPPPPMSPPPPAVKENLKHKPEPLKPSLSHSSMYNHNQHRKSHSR
In words: two-hybrid; yeast AH109, fragments in pGADT7 (AD) and pGBKT7 (BD), co-transformed, growth on selection medium.

Assay [2] deals with T2, OsSRF8 (C), C-terminal (intracellular) domain of OsSRF8, amino acids 344-757, yeast two-hybrid fusion (rice (Oryza sativa)).
T2 sequence: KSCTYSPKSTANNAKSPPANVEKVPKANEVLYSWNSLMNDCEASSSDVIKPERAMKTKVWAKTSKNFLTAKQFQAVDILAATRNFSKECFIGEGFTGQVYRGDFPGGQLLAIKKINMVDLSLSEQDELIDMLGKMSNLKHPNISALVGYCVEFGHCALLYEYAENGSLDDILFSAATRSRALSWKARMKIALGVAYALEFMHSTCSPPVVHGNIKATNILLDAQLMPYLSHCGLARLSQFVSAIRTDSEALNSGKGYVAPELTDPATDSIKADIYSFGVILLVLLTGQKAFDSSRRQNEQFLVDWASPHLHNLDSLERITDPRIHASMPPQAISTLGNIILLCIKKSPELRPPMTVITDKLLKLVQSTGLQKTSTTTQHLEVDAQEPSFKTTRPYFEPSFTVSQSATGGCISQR
Described as above.

The target of assay [3] is T3, full-length OsSRF8 fused to the N-terminal part of YFP (pSPYNE) (rice (Oryza sativa)).
T3 sequence: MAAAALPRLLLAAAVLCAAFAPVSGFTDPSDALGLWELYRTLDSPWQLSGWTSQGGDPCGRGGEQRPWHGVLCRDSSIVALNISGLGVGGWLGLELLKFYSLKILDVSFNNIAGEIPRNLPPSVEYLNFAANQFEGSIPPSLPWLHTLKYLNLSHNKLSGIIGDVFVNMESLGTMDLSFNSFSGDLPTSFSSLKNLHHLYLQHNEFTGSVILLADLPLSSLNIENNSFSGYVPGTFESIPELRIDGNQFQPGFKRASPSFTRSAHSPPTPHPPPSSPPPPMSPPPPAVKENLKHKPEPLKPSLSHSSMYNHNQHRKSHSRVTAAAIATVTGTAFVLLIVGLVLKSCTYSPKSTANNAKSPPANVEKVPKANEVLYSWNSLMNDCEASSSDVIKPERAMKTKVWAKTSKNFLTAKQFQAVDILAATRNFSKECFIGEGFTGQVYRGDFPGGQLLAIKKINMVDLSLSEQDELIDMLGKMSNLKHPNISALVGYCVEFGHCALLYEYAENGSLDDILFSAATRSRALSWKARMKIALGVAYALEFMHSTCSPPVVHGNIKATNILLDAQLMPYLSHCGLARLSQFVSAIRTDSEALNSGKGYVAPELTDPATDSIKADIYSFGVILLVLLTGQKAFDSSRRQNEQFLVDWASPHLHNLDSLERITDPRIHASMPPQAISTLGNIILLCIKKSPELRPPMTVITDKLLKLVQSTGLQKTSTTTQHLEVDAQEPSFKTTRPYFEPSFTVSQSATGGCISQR
Description: split reporter; BiFC, YFP halves (pSPYNE/pSPYCE), co-infiltrated N. benthamiana leaves, 48 h, confocal microscopy.

Assay [4] addresses T4, truncated OsSRF8(N), amino acids 26-320, fused to the N-terminal part of YFP (pSPYNE) (rice (Oryza sativa)).
T4 sequence: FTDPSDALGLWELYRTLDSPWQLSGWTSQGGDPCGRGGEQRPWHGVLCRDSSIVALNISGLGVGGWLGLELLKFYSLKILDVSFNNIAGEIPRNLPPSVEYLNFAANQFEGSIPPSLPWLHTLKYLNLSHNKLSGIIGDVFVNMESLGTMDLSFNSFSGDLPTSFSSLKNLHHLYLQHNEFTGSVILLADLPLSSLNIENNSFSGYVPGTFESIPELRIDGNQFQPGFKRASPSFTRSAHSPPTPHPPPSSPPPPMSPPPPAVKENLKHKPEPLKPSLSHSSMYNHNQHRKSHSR
The assay is described as above.

Assay [5] deals with T5, OsSRF8 (N)-Flag, amino acids 26-320 (pCAMBIA1300-Flag) (rice (Oryza sativa)).
T5 sequence: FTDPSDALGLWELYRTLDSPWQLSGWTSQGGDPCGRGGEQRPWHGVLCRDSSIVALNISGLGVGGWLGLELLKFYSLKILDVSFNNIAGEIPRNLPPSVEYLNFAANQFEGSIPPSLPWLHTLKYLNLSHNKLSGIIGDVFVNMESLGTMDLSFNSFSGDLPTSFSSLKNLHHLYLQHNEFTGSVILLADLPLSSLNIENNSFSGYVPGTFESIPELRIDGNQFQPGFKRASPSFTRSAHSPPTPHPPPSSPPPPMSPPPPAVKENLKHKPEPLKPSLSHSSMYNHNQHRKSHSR
Description: co-IP; N. benthamiana leaves; IP buffer 50 mM Tris-HCl pH 7.5, 100 mM NaCl, 0.75% Triton X-100; anti-Flag M2 agarose beads, 4 °C; blot with anti-GFP and anti-Flag.

Assay [6] addresses OsDAF1-Flag (pAN580-Flag) (rice (Oryza sativa)). In words: co-IP; rice protoplasts; IP buffer 50 mM Tris-HCl pH 7.5, 100 mM NaCl, 0.75% Triton X-100; anti-Flag M2 agarose beads, 4 °C; blot with anti-HA and anti-Flag.
The target in assay [7] is OsDAF1(C)-Flag, amino acids 355-695 (pCAMBIA1300-Flag) (rice (Oryza sativa)). Description: co-IP; N. benthamiana leaves; IP buffer 50 mM Tris-HCl pH 7.5, 100 mM NaCl, 0.75% Triton X-100; anti-Flag M2 agarose beads, 4 °C; blot with anti-GFP and anti-Flag.

Five molecules from paper PMC11130342 can be followed below.

These are yes or no findings as the source states them, for the method shown. For some of these results: Binding calls can cover weak binding; strength is not graded here. Tags and fused reporters may be left off the sequences shown. For some of these results: Binding seen in cells or lysates may run through a third protein.

Consider “OsINP1 (INAPERTURATE POLLEN1), yeast two-hybrid fusion (rice (Oryza sativa))”, for which the binding entry in assay [1] was “binds”; in assay [2], “no binding”. For the molecule “OsINP1 fused to the C-terminal part of YFP (pSPYCE) (rice (Oryza sativa))”, the binding result in assay [3] and in assay [4] was “binds” in each case.

Consider “OsINP1-GFP (pCAMBIA1305-GFP) (rice (Oryza sativa))”, for which the binding result in assay [5] is listed as “binds”.

B1: OsSRF8-HA (pAN580-HA) (protein)
chain: MAAAALPRLLLAAAVLCAAFAPVSGFTDPSDALGLWELYRTLDSPWQLSGWTSQGGDPCGRGGEQRPWHGVLCRDSSIVALNISGLGVGGWLGLELLKFYSLKILDVSFNNIAGEIPRNLPPSVEYLNFAANQFEGSIPPSLPWLHTLKYLNLSHNKLSGIIGDVFVNMESLGTMDLSFNSFSGDLPTSFSSLKNLHHLYLQHNEFTGSVILLADLPLSSLNIENNSFSGYVPGTFESIPELRIDGNQFQPGFKRASPSFTRSAHSPPTPHPPPSSPPPPMSPPPPAVKENLKHKPEPLKPSLSHSSMYNHNQHRKSHSRVTAAAIATVTGTAFVLLIVGLVLKSCTYSPKSTANNAKSPPANVEKVPKANEVLYSWNSLMNDCEASSSDVIKPERAMKTKVWAKTSKNFLTAKQFQAVDILAATRNFSKECFIGEGFTGQVYRGDFPGGQLLAIKKINMVDLSLSEQDELIDMLGKMSNLKHPNISALVGYCVEFGHCALLYEYAENGSLDDILFSAATRSRALSWKARMKIALGVAYALEFMHSTCSPPVVHGNIKATNILLDAQLMPYLSHCGLARLSQFVSAIRTDSEALNSGKGYVAPELTDPATDSIKADIYSFGVILLVLLTGQKAFDSSRRQNEQFLVDWASPHLHNLDSLERITDPRIHASMPPQAISTLGNIILLCIKKSPELRPPMTVITDKLLKLVQSTGLQKTSTTTQHLEVDAQEPSFKTTRPYFEPSFTVSQSATGGCISQR
With B1, the binding entry in assay [6] is listed as “binds”.

B2: OsSRF8 (C)-GFP, amino acids 344-757 (pCAMBIA1305-GFP) (domain or fragment)
chain: KSCTYSPKSTANNAKSPPANVEKVPKANEVLYSWNSLMNDCEASSSDVIKPERAMKTKVWAKTSKNFLTAKQFQAVDILAATRNFSKECFIGEGFTGQVYRGDFPGGQLLAIKKINMVDLSLSEQDELIDMLGKMSNLKHPNISALVGYCVEFGHCALLYEYAENGSLDDILFSAATRSRALSWKARMKIALGVAYALEFMHSTCSPPVVHGNIKATNILLDAQLMPYLSHCGLARLSQFVSAIRTDSEALNSGKGYVAPELTDPATDSIKADIYSFGVILLVLLTGQKAFDSSRRQNEQFLVDWASPHLHNLDSLERITDPRIHASMPPQAISTLGNIILLCIKKSPELRPPMTVITDKLLKLVQSTGLQKTSTTTQHLEVDAQEPSFKTTRPYFEPSFTVSQSATGGCISQR
Turning to B2, the binding result in assay [7] was “binds”.
